PubChem BioAssay AID1224826 | NIAID – 2016
Shown is an unselected part of about 17,000 reagents. Of all reagents, about 1,110 (6.6%) got an active call. 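Active means lowered or raised reporter signal; replicate intensities are raw and not normalised per plate.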 Not all columns of the deposit are shown.

Test: 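Genes that change LPS-induced Tnf promoter activity in mouse macrophages when knocked down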 (primary screen)
System: RAW264.7 G9 macrophages from mouse bearing reporters for p65 (GFP) and the Tnf promoter (mCherry)
Reagent: siRNA pool against mouse genes, 100 nM
Timing: 16 h of LPS stimulation, after 2 days of siRNA transfection
Conditions: bacterial lipopolysaccharide (Salmonella minnesota R595), 10 ng/ml
Detection: 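Nuclear mCherry signal of the Tnf promoter reporter measured by imaging after background removal, scaled to each plate median and turned into robust z-scores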
Reading the numbers: Tnf reporter robust z-score: higher = stronger Tnf promoter reporter signal after LPS
Rule for the call: 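Called active when robust z-score is at most -1.3, matching the median of the Tlr4 knock-down control, or over 3; control wells and wells with under 50 cells never active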
Meaning of the calls: active = Tnf reporter clearly lowered or raised; inactive = no clear change in Tnf reporter

no.	gene	Tnf reporter robust z-score	fewer than 50 cells in well	outcome
1	Il5 (interleukin 5)	-0.48	enough cells in well	inactive
2	Myef2 (myelin basic protein expression factor 2, repressor)	-0.6	enough cells in well	inactive
3	Tubd1 (tubulin, delta 1)	0.57	enough cells in well	inactive
4	Rnf139 (ring finger protein 139)	0.84	enough cells in well	inactive
5	Arglu1 (arginine and glutamate rich 1)	0.35	enough cells in well	inactive
6	Mkrn2 (makorin, ring finger protein, 2)	2.57	enough cells in well	inactive
7	Unc13b (unc-13 homolog B)	0.2	enough cells in well	inactive
8	C030016D13Rik (RIKEN cDNA C030016D13 gene)	-0.22	enough cells in well	inactive
9	Vmn1r174 (vomeronasal 1 receptor 174)	0.69	enough cells in well	inactive
10	Or5d37 (olfactory receptor family 5 subfamily D member 37)	-0.78	enough cells in well	inactive
11	Pi4k2a (phosphatidylinositol 4-kinase type 2 alpha)	-0.46	enough cells in well	inactive
12	Ecsit (ECSIT signalling integrator)	1.85	enough cells in well	inactive
13	Nmur2 (neuromedin U receptor 2)	-0.55	enough cells in well	inactive
14	Alpl (alkaline phosphatase, liver/bone/kidney)	-0.09	enough cells in well	inactive
15	Ppp1r14d (protein phosphatase 1, regulatory inhibitor subunit 14D)	1.23	enough cells in well	inactive
16	Acad11 (acyl-Coenzyme A dehydrogenase family, member 11)	0.67	enough cells in well	inactive
17	Rnf20 (ring finger protein 20)	-0.11	enough cells in well	inactive
18	Ca1 (carbonic anhydrase 1)	-0.58	enough cells in well	inactive
19	Gpr137 (G protein-coupled receptor 137)	0.09	enough cells in well	inactive
20	Josd1 (Josephin domain containing 1)	-0.14	enough cells in well	inactive
21	Eif4ebp2	-0.1	enough cells in well	inactive
22	Mblac1 (metallo-beta-lactamase domain containing 1)	-0.13	enough cells in well	inactive
23	Slc16a12	-1.13	enough cells in well	inactive
24	Dand5 (DAN domain family member 5, BMP antagonist)	0.07	enough cells in well	inactive
25	Ccng1 (cyclin G1)	0.07	enough cells in well	inactive
26	Zfp933 (zinc finger protein 933)	1.66	enough cells in well	inactive
27	Vpreb1a (V-set pre-B cell surrogate light chain 1A)	-1.14	enough cells in well	inactive
28	Pdcd6 (programmed cell death 6)	0.32	enough cells in well	inactive
29	Adamts2 (ADAM metallopeptidase with thrombospondin type 1 motif 2)	1.74	enough cells in well	inactive
30	Cenpk (centromere protein K)		fewer than 50 cells per well; well left out of calls	inactive
31	Tfdp1 (transcription factor Dp 1)	-0.07	enough cells in well	inactive
32	Glul (glutamate-ammonia ligase)	-1.88	enough cells in well	active
33	Or52e15 (olfactory receptor family 52 subfamily E member 15)	-1.74	enough cells in well	active
34	Slc15a2	2.51	enough cells in well	inactive
35	Nrtn (neurturin)	-0.55	enough cells in well	inactive
36	Bcl2l10 (Bcl2-like 10)	-0.46	enough cells in well	inactive
37	Cadm3 (cell adhesion molecule 3)	-0.57	enough cells in well	inactive
38	Ppfibp2 (PTPRF interacting protein, binding protein 2 (liprin beta 2))	-0.36	enough cells in well	inactive
39	Nt5c3b (5'-nucleotidase, cytosolic IIIB)	1.04	enough cells in well	inactive
40	Igfn1	-1.08	enough cells in well	inactive

Not a retest: entries from further up.
no.	gene	Tnf reporter robust z-score	fewer than 50 cells in well	outcome
35	Nrtn (neurturin)	-0.55	enough cells in well	inactive
36	Bcl2l10 (Bcl2-like 10)	-0.46	enough cells in well	inactive
37	Cadm3 (cell adhesion molecule 3)	-0.57	enough cells in well	inactive
38	Ppfibp2 (PTPRF interacting protein, binding protein 2 (liprin beta 2))	-0.36	enough cells in well	inactive
39	Nt5c3b (5'-nucleotidase, cytosolic IIIB)	1.04	enough cells in well	inactive
40	Igfn1	-1.08	enough cells in well	inactive
